Experimental data: PubChem BioAssay AID743454 (Peter MacCallum Cancer Centre, 2014)
Assay: 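Knock-downs lowering viability or raising caspase 3/7 activity in vorinostat-treated resistant cells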 (primary screen). Cell system: human HCT116-VR colon cancer cells, selected for vorinostat resistance. Knock-down reagent: siRNA pool against human genes, 40 nM siRNA pool. Time to read-out: vorinostat for 24 h, read-out about 72 h after transfection. Treatment: vorinostat at 2.5 µM final. Measurement: 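Two measures, CellTiter-Fluor viability and luminescent caspase 3/7 activity, each as fold change against same-plate mock wells, mean of duplicates, then screen-wide robust z-score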. Scale: viability robust z-score: higher = more viable cells than screen typical; caspase robust z-score: higher = more caspase 3/7 activity than screen typical. Hit rule: 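Hits are knock-downs in viability class RV1/RV2 or caspase class CA1/CA2, excluding ones that killed cells in the no-drug cell-count arm; hits then retested with single siRNAs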.
Shown is one part, drawn at random, of about 18,000 reagents tested. 450 of all reagents (2.5%) count as active. 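Single biological run; no consistent viability z cut-off exists, so the class columns, not z-scores, define the calls.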 No sequences are given here.

The opening 2 records as a preview:
no.	target gene	viability hit class	caspase hit class	viability robust z-score	caspase robust z-score	Outcome
1	BEST2 (bestrophin 2)	no change	no change	1.67	-0.38	inactive
2	HNRNPA1L2 (heterogeneous nuclear ribonucleoprotein A1 like 2)	no change	no change	1.02	-0.24	inactive

Main list, repeating the preview:
no.	target gene	viability hit class	caspase hit class	viability robust z-score	caspase robust z-score	Outcome
1	BEST2 (bestrophin 2)	no change	no change	1.67	-0.38	inactive
2	HNRNPA1L2 (heterogeneous nuclear ribonucleoprotein A1 like 2)	no change	no change	1.02	-0.24	inactive
3	COL4A4 (collagen type IV alpha 4 chain)	no change	no change	2.26	0.12	inactive
4	CBS (cystathionine beta-synthase)	no change	no change	1.29	-0.44	inactive
5	SNTG2 (syntrophin gamma 2)	no change	no change	-1.89	0.24	inactive
6	TINAG (tubulointerstitial nephritis antigen)	no change	no change	-0.12	-1.1	inactive
7	CYP4V2 (cytochrome P450 family 4 subfamily V member 2)	no change	no change	0.18	-1.12	inactive
8	ATP11B (ATPase phospholipid transporting 11B (putative))	no change	no change	0.26	-1.32	inactive
9	MGAT4C (MGAT4 family member C)	no change	no change	-1.6	2.43	inactive
10	LIMS3 (LIM zinc finger domain containing 3)	no change	no change	1.1	0.26	inactive
11	NRGN (neurogranin)	no change	no change	-0.07	0.73	inactive
12	TBC1D14 (TBC1 domain family member 14)	no change	no change	-1.42	-0.44	inactive
13	PRR34 (PRR34 long non-coding RNA)	no change	no change	-1.52	-0.36	inactive
14	LOXL4 (lysyl oxidase like 4)	no change	no change	1.7	-0.38	inactive
15	PLA2G4C (phospholipase A2 group IVC)	no change	no change	0.36	-0.3	inactive
16	CFAP58 (cilia and flagella associated protein 58)	no change	no change	0.04	1.5	inactive
17	APLP2 (amyloid beta precursor like protein 2)	no change	no change	-0.21	0.21	inactive
18	GHSR (growth hormone secretagogue receptor)	no change	no change	-1.67	-0.66	inactive
19	TUBGCP3 (tubulin gamma complex component 3)	no change	no change	-2.29	4.53	inactive
20	GET3 (guided entry of tail-anchored proteins factor 3, ATPase)	no change	no change	0.18	-0.72	inactive
21	DPH3 (diphthamide biosynthesis 3)	no change	no change	-0.3	0.29	inactive
22	SNRNP48 (small nuclear ribonucleoprotein U11/U12 subunit 48)	no change	no change	0.28	-0.14	inactive
23	MSTN (myostatin)	no change	no change	1.47	1.21	inactive
24	OR52B2 (olfactory receptor family 52 subfamily B member 2)	no change	no change	-0.78	-0.44	inactive
25	ANKRD24 (ankyrin repeat domain 24)	no change	no change	0.86	0.16	inactive
26	SDHB (succinate dehydrogenase complex iron sulfur subunit B)	no change	no change	0.84	-0.12	inactive
27	UTP11 (UTP11 small subunit processome component)	no change	no change	-2.88	-1.58	inactive
28	RIOK3 (RIO kinase 3)	no change	no change	0.39	-0.94	inactive
29	SLIRP (SRA stem-loop interacting RNA binding protein)	no change	no change	1.66	0.17	inactive
30	NEUROG3 (neurogenin 3)	no change	no change	0.63	-0.36	inactive
31	RASA2 (RAS p21 protein activator 2)	no change	no change	2.6	-0.3	inactive
32	CYLC1 (cylicin 1)	no change	no change	-1.08	-1.11	inactive
33	HMGB4 (high mobility group box 4)	no change	no change	-0.39	-0.29	inactive
34	TSSK3 (testis specific serine kinase 3)	no change	no change	0.3	0.26	inactive
35	TFF3 (trefoil factor 3)	no change	no change	1.48	-0.3	inactive
36	TMTC3 (transmembrane O-mannosyltransferase targeting cadherins 3)	no change	no change	0.9	-0.14	inactive
37	CUL4B (cullin 4B)	no change	no change	1.08	-0.22	inactive
38	OR4F16 (olfactory receptor family 4 subfamily F member 16)	no change	no change	-0.16	-1.06	inactive
39	FLG2 (filaggrin 2)	no change	no change	-1.6	-0.18	inactive
40	LSM14A (LSM14A mRNA processing body assembly factor)	no change	CA2 (caspase activation)	-1.14	10.7	active
41	FAM13A (family with sequence similarity 13 member A)	no change	no change	0.34	4.97	inactive
42	TSPY2 (testis specific protein Y-linked 2)	no change	no change	1.23	0.38	inactive
43	ZNF770 (zinc finger protein 770)	no change	no change	-1.61	0.93	inactive
44	TPPP (tubulin polymerization promoting protein)	no change	no change	-0.97	2.42	inactive
45	WDR72 (WD repeat domain 72)	no change	no change	1.29	0.92	inactive
46	CYSLTR2 (cysteinyl leukotriene receptor 2)	no change	no change	-0.48	-0.3	inactive
47	UNC45B (unc-45 myosin chaperone B)	no change	no change	-0.01	2.43	inactive
48	CPED1 (cadherin like and PC-esterase domain containing 1)	no change	no change	0.45	1.05	inactive
49	CILP2 (cartilage intermediate layer protein 2)	no change	no change	-1.52	2.07	inactive
50	DIS3L (DIS3 like exosome 3'-5' exoribonuclease)	no change	no change	0.76	0.14	inactive
51	SPINK6 (serine peptidase inhibitor Kazal type 6)	no change	no change	-1.02	0.52	inactive
52	PCDH8 (protocadherin 8)	no change	no change	1.25	-0.32	inactive
53	PRAG1 (PEAK1 related, kinase-activating pseudokinase 1)	no change	no change	0.28	1.05	inactive
54	ICA1 (islet cell autoantigen 1)	no change	no change	0.16	-0.02	inactive
55	EDIL3 (EGF like and discoidin domains 3)	no change	no change	-0.27	-0.11	inactive
56	STAT3 (signal transducer and activator of transcription 3)	no change	no change	-0.04	-0.15	inactive
57	ZBTB49 (zinc finger and BTB domain containing 49)	no change	no change	1.23	-0.71	inactive
